Results reported in article PMC5707354 (Nature Communications, 2017).
These are yes or no findings as the source states them, for the method shown. For some assays here: In cells and extracts the contact can be indirect. Some binding calls cover weakened binding; strength is not graded here.

The chains behind the UniProt entries cited, without tags or fusion partners. Where a name states a change or a piece, a line headed by the entry shows the natural chain unless it says otherwise. A line that says so, or that is headed by a name, gives the form on record, which may keep a tag or linker.
His-tagged NMVI_(TAIL) (Q9UM54, form named): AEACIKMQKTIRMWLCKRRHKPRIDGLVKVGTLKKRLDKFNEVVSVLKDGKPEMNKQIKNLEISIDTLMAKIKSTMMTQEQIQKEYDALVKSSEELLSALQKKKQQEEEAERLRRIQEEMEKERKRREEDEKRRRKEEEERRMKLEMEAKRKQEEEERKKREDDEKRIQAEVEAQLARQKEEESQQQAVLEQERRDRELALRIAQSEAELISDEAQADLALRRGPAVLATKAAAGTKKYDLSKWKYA
His-tagged NCBD_(1060-1120) (Q9UM54, form named): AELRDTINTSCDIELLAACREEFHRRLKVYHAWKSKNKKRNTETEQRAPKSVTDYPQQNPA

Columns and labels:
[1] = biological target: His-tagged NMVI_(TAIL) (human) (UniProt Q9UM54); assay: pull-down; His-tagged NMVI_TAIL bait on His Mag Sepharose Ni beads; bait and prey both at 10 uM (CBD) or 5 uM (CoCoA); 50 mM Tris-HCl pH 7.5, 500 mM NaCl, 40 mM imidazole, 1 mM DTT, 30 min, 25 C; SDS-PAGE of pellet and supernatant; both purified
[2] = biological target: His-tagged NCBD_(1060-1120) (human) (UniProt Q9UM54); assay: pull-down; His-tagged recombinant bait on Ni beads, HeLa nuclear extract (50 mM Tris-HCl pH 7.5, 500 mM NaCl, 40 mM imidazole, 1 mM DTT, 1% Triton X), 30 min; immunoblot against NDP52 or RNAPII phospho S5; only the target purified

| binding [1] | binding [2] | Binder |
| --- | --- | --- |
| binds |  | CoCoA (recombinant) (protein, UniProt Q9P1Z2 1-691) MEESPLSRAPSRGGVNFLNVARTYIPNTKVECHYTLPPGTMPSASDWIGIFKVEAACVRDYHTFVWSSVPESTTDGSPIHTSVQFQASYLPKPGAQLYQFRYVNRQGQVCGQSPPFQFREPRPMDELVTLEEADGGSDILLVVPKATVLQNQLDESQQERNDLMQLKLQLEGQVTELRSRVQELERALATARQEHTELMEQYKGISRSHGEITEERDILSRQQGDHVARILELEDDIQTISEKVLTKEVELDRLRDTVKALTREQEKLLGQLKEVQADKEQSEAELQVAQQENHHLNLDLKEAKSWQEEQSAQAQRLKDKVAQMKDTLGQAQQRVAELEPLKEQLRGAQELAASSQQKATLLGEELASAAAARDRTIAELHRSRLEVAEVNGRLAELGLHLKEEKCQWSKERAGLLQSVEAEKDKILKLSAEILRLEKAVQEERTQNQVFKTELAREKDSSLVQLSESKRELTELRSALRVLQKEKEQLQEEKQELLEYMRKLEARLEKVADEKWNEDATTEDEEAAVGLSCPAALTDSEDESPEDMRLPPYGLCERGDPGSSPAGPREASPLVVISQPAPISPHLSGPAEDSSSDSEAEDEKSVLMAAVQSGGEEANLLLPELGSAFYDMASGFTVGTLSETSTGGPATPTWKECPICKERFPAESDKDALEDHMDGHFFFSTQDPFTFE |
|  | binds | NDP52, endogenous (HeLa) (protein, UniProt Q13137 1-446) MEETIKDPPTSAVLLDHCHFSQVIFNSVEKFYIPGGDVTCHYTFTQHFIPRRKDWIGIFRVGWKTTREYYTFMWVTLPIDLNNKSAKQQEVQFKAYYLPKDDEYYQFCYVDEDGVVRGASIPFQFRPENEEDILVVTTQGEVEEIEQHNKELCKENQELKDSCISLQKQNSDMQAELQKKQEELETLQSINKKLELKVKEQKDYWETELLQLKEQNQKMSSENEKMGIRVDQLQAQLSTQEKEMEKLVQGDQDKTEQLEQLKKENDHLFLSLTEQRKDQKKLEQTVEQMKQNETTAMKKQQELMDENFDLSKRLSENEIICNALQRQKERLEGENDLLKRENSRLLSYMGLDFNSLPYQVPTSDEGGARQNPGLAYGNPYSGIQESSSPSPLSIKKCPICKADDICDHTLEQQQMQPLCFNCPICDKIFPATEKQIFEDHVFCHSL |
